From article doi:10.1101/2023.10.09.561567 (bioRxiv, 2023) come the findings set out here.

Results are given in words; binding and its absence hold for the method and conditions named. For some assays here: A result given as binding can be weak or reduced; the word gives no strength.

The target of assay [1] is T1, mouse ST2 ectodomain (mouse) (UniProt P14719).
T1 sequence: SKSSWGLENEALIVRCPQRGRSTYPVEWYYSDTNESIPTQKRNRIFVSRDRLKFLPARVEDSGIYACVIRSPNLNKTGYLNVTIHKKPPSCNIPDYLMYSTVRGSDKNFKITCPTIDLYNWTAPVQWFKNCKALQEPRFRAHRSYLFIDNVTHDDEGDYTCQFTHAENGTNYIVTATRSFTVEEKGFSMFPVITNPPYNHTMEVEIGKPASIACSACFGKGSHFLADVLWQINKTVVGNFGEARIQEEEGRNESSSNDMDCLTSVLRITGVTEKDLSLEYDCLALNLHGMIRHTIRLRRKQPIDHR
The experiment in a line: condition: 20 μM mST2 ectodomain with 25 μM HpARI2:mIL33.

In assay [2] the target is T1, mouse ST2 ectodomain (mouse). Put plainly: SEC.

On to “HpARI2:mIL33 complex (Heligmosomoides polygyrus bakeri | mouse)”, for which the binding entry in assay [1] is “no binding”.

As for “HpARI3:mIL33 complex (Heligmosomoides polygyrus bakeri | mouse)”, the binding result in assay [2] is “binds”.
